Literature values as cited in publication PMC5093203 (Pharmaceutical Research, 2016).

Conditions: rat, in vivo, iv; cited from earlier work

Substance: insulin peglispro [BIL]
- % of dose excreted unchanged in urine: 11%
